Assay results reported in publication PMC4654411.
Results are given in words; binding and its absence hold for the method and conditions named. In cells and extracts the contact can be indirect. Some results given as binding are weak or reduced against the parent protein; the word gives no strength. For some assays here: Sequences can lack the tags named with a protein.

Amino acid sequences for entries named in this document (tags omitted). A change or cut given only in a name is not applied to a line headed by its entry.
UniProt P61586: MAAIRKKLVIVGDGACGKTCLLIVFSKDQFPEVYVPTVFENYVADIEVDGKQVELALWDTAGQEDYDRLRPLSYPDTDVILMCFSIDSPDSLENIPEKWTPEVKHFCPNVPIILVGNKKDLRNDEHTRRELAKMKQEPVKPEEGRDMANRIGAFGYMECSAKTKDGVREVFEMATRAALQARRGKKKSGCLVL
UniProt P21333: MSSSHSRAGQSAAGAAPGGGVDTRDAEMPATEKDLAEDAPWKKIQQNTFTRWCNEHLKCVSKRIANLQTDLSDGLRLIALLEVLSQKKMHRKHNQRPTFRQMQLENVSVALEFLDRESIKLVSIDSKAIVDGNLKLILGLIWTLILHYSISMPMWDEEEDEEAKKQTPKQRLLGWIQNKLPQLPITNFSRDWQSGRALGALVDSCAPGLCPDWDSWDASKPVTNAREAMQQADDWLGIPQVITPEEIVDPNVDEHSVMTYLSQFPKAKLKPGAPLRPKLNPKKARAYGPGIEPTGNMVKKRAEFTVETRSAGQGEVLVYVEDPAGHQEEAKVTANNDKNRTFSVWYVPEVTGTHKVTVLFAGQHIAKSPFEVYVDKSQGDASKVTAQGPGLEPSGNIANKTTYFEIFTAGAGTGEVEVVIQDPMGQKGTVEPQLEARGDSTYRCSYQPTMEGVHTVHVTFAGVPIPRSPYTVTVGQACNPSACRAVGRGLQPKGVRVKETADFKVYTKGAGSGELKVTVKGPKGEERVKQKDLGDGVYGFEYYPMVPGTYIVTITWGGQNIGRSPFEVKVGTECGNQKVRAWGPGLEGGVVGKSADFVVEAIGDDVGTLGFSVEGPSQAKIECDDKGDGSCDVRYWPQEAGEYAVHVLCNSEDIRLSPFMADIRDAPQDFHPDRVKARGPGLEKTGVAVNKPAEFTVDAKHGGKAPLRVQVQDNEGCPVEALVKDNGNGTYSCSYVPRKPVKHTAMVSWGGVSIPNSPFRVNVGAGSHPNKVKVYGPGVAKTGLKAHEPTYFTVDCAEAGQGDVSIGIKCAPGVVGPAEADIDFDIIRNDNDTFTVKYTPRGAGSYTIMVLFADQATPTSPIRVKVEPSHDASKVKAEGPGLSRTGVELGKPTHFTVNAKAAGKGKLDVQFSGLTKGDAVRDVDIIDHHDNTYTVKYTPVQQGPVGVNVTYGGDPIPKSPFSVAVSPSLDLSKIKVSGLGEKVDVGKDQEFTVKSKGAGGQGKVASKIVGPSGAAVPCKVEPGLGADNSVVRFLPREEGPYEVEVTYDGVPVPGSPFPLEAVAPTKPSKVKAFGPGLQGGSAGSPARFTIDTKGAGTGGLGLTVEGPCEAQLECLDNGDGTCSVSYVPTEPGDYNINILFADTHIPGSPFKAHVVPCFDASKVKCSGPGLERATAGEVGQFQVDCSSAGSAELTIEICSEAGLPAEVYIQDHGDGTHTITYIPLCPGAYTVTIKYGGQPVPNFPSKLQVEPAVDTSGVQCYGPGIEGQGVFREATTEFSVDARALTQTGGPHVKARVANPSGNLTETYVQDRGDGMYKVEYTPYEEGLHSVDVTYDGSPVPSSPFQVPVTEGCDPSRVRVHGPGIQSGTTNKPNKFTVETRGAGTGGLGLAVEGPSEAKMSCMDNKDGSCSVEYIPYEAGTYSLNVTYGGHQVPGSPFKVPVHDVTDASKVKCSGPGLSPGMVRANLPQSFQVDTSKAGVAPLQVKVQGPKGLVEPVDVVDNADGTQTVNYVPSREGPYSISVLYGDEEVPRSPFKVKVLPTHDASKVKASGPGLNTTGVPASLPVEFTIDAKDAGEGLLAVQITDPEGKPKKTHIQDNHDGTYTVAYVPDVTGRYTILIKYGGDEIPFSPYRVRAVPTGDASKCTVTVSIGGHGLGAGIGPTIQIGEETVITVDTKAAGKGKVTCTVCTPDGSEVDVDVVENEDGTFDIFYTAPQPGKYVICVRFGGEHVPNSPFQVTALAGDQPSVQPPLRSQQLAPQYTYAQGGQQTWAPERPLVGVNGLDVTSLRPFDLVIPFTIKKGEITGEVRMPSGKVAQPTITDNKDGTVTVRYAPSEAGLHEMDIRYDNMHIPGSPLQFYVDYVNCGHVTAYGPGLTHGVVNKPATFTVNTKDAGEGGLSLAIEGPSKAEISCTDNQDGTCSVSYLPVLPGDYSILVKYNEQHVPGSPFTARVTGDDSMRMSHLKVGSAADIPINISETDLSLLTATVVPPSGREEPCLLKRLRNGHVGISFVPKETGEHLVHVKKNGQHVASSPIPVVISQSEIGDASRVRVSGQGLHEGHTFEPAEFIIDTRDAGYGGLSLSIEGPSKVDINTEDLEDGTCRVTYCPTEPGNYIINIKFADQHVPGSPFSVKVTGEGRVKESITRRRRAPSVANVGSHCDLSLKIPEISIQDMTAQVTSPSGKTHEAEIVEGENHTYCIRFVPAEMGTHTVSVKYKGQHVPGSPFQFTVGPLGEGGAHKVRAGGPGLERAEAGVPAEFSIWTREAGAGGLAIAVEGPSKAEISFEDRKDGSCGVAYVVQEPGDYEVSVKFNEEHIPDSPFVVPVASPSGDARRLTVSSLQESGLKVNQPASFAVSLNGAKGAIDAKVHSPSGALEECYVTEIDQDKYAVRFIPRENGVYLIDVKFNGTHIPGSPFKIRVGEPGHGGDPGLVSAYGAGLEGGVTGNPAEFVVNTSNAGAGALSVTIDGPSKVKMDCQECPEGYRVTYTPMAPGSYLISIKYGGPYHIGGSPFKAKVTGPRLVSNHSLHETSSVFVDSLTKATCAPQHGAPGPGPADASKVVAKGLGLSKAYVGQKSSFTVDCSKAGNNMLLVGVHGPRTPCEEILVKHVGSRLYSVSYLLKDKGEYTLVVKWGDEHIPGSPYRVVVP

T1: Full-length HA-tagged PTPN12 (human) (UniProt Q05209)
T1 sequence: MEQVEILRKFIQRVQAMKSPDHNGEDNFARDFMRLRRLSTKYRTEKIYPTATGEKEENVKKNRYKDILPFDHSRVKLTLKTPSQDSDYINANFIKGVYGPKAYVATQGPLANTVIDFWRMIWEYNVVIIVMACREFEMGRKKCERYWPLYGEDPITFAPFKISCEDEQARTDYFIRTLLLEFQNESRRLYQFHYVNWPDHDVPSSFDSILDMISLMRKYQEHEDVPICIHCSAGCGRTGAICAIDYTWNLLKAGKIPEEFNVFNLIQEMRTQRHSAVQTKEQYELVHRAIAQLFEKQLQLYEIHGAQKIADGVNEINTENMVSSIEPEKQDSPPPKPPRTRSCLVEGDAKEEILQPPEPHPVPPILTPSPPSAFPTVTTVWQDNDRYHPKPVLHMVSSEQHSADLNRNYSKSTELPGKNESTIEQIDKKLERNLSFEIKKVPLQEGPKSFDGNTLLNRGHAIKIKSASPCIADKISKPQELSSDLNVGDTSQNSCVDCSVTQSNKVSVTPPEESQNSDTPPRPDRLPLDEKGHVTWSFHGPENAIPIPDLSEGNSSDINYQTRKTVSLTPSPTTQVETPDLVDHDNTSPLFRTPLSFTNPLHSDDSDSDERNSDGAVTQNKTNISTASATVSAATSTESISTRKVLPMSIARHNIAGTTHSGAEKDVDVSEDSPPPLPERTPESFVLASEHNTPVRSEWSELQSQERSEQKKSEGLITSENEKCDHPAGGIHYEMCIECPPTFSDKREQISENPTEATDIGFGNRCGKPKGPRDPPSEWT


Legend:
[1] = molecular target: T1, Full-length HA-tagged PTPN12 (human); assay: co-IP; Hek293 cells co-transfected with HA-PTPN12 and GFP-tagged FlnAs; 500 µg lysate in NETF buffer, 6 µg anti-HA 2 h at 4 °C, protein A beads; immunoblot
GST-RhoA-Q63L = GST-RhoA-Q63L (UniProt P61586); assay: pull-down; GST-RhoA-Q63L as bait with lysates of melanoma cells expressing FlnA-WT or FlnA-P637Q, protocol similar to the GST-PTPN12 pull-down; anti-p190RhoGAP immunoblot; only the target purified

binding [1]	binding (GST-RhoA-Q63L)	Molecule
binds	–	GFP-tagged-FlnA-WT (from UniProt P21333 1-2647)
–	binds	p190RhoGAP (protein, UniProt Q9NRY4 1-1499) MMMARKQDVRIPTYNISVVGLSGTEKEKGQCGIGKSCLCNRFVRPSADEFHLDHTSVLSTSDFGGRVVNNDHFLYWGEVSRSLEDCVECKMHIVEQTEFIDDQTFQPHRSTALQPYIKRAAATKLASAEKLMYFCTDQLGLEQDFEQKQMPDGKLLVDGFLLGIDVSRGMNRNFDDQLKFVSNLYNQLAKTKKPIVVVLTKCDEGVERYIRDAHTFALSKKNLQVVETSARSNVNVDLAFSTLVQLIDKSRGKTKIIPYFEALKQQSQQIATAKDKYEWLVSRIVKNHNENWLSVSRKMQASPEYQDYVYLEGTQKAKKLFLQHIHRLKHEHIERRRKLYLAALPLAFEALIPNLDEIDHLSCIKAKKLLETKPEFLKWFVVLEETPWDATSHIDNMENERIPFDLMDTVPAEQLYEAHLEKLRNERKRVEMRRAFKENLETSPFITPGKPWEEARSFIMNEDFYQWLEESVYMDIYGKHQKQIIDKAKEEFQELLLEYSELFYELELDAKPSKEKMGVIQDVLGEEQRFKALQKLQAERDALILKHIHFVYHPTKETCPSCPACVDAKIEHLISSRFIRPSDRNQKNSLSDPNIDRINLVILGKDGLARELANEIRALCTNDDKYVIDGKMYELSLRPIEGNVRLPVNSFQTPTFQPHGCLCLYNSKESLSYVVESIEKSRESTLGRRDNHLVHLPLTLILVNKRGDTSGETLHSLIQQGQQIASKLQCVFLDPASAGIGYGRNINEKQISQVLKGLLDSKRNLNLVSSTASIKDLADVDLRIVMCLMCGDPFSADDILFPVLQSQTCKSSHCGSNNSVLLELPIGLHKKRIELSVLSYHSSFSIRKSRLVHGYIVFYSAKRKASLAMLRAFLCEVQDIIPIQLVALTDGAVDVLDNDLSREQLTEGEEIAQEIDGRFTSIPCSQPQHKLEIFHPFFKDVVEKKNIIEATHMYDNAAEACSTTEEVFNSPRAGSPLCNSNLQDSEEDIEPSYSLFREDTSLPSLSKDHSKLSMELEGNDGLSFIMSNFESKLNNKVPPPVKPKPPVHFEITKGDLSYLDQGHRDGQRKSVSSSPWLPQDGFDPSDYAEPMDAVVKPRNEEENIYSVPHDSTQGKIITIRNINKAQSNGSGNGSDSEMDTSSLERGRKVSIVSKPVLYRTRCTRLGRFASYRTSFSVGSDDELGPIRKKEEDQASQGYKGDNAVIPYETDEDPRRRNILRSLRRNTKKPKPKPRPSITKATWESNYFGVPLTTVVTPEKPIPIFIERCIEYIEATGLSTEGIYRVSGNKSEMESLQRQFDQDHNLDLAEKDFTVNTVAGAMKSFFSELPDPLVPYNMQIDLVEAHKINDREQKLHALKEVLKKFPKENHEVFKYVISHLNKVSHNNKVNLMTSENLSICFWPTLMRPDFSTMDALTATRTYQTIIELFIQQCPFFFYNRPITEPPGARPSSPSAVASTVPFLTSTPVTSQPSPPQSPPPTPQSPMQPLLPSQLQAEHTL
